Measurements reported in PubChem BioAssay AID2685 (National Center for Advancing Translational Sciences (NCATS), 2010).
Some of the results follow. Further columns of the screen follow, without active or inactive calls. Most of these compounds were active or inconclusive in the main read-out, so they are no random draw. Words in brackets tell the shape of the fitted curve; partial curves, single points and poor fits give uncertain potencies.

Experiment: qHTS Assay for Lipid Storage Modulators in Drosophila S3 Cells;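 on cell number change: cells counted by Cell Tracker Red CMTPX staining in the red channel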
Conditions: BODIPY lipid droplet fluorescence, 18-24 h; for cell number change: measured here: cell count max response, cells fed with added oleic acid
Text: NIH Molecular Libraries Probe Production Centers Network [MLPCN] NIH Chemical Genomics Center [NCGC] MLPCN Grant: 1 R03 MH085686-01 Assay Submitter (PI): Beller, Mathias; Max-Planck-Institut fur Biophysikalische Chemie NCGC Assay Overview: Storing lipids as a reservoir for energy or the anabolism of elementary metabolites is a common feature of probably all cells and is conserved from bacteria to humans. The universal cellular lipid storage organelle is the so-called lipid storage droplet (LD). Although ubiquitous, LDs share a simple structure composed of a hydrophobic core that harbors the storage lipids, which is shielded by a droplet-specific phospholipid monolayer to which proteins are attached. The current model of LD biogenesis involves an incorporation of the lipid core into the membrane leaflets of the endoplasmic reticulum (ER) followed by a subsequent budding-like maturation of a LD, which ultimately pinches off. Once released, LD volume can increase by localized lipogenesis or fusion of existing droplet. Storage lipids are re-mobilized enzymatically by lipase activity. Lipase regulation in the adipocyte is heavily studied and involves multiple components including catecholamine signaling, the LD-associated proteins Perilipin and comparative gene identification (CGI-58) and at least two lipases named hormone sensitive lipase (HSL) and adipocyte triglyceride lipase (ATGL). LD regulation outside of the adipocyte is poorly understood and only few components are known. However, there is an urgent need to learn more about ectopic fat depots as mislocalized storage of lipids, for example in the liver or muscle, is an eminent health problem associated with insulin resistance or the metabolic syndrome. We developed a laser-scanning cytometer assay to enable 1,536-well screening and combined the results of the small molecules screen with an RNAi database based on lipid storage.
Triacsin C (Sigma-Aldrich T-4540), an inhibitor of long-chain fatty acyl CoA synthetase that blocks synthesis of triglycerides, was used as a positive control for lipid under-storage. A total of 23 nL of compound solution of different concentrations were transferred to the assay plates using a Kalypsys pin tool equipped with a 1,536-pin array containing 10-nL slotted pins (FP1S10, 0.457-mm diameter, 50.8 mm long; V&P Scientific). One microliter of oleic acid (400 uM) was added, and the plate was lidded with stainless steel rubber gasket lined lids containing pinholes. […] Fluorescence was detected by excitation of the fluorophores with a 488-nm laser on an Acumen Explorer (TTP Lab Tech). The total intensity in channel 2 (500-530 nm) reflected lipid droplet accumulation. Cells were detected using channel 3 (575-640 nm) with 5-um width and 100-um depth filters. The ratio of the number of objects in PMT channel 2 over the number of objects in PMT channel 3 was also calculated. Percent activity was computed relative to an internal control (100% inhibited lipid droplet deposition due to the presence of 20 uM Triacsin C), which was added to 32 wells/plate.

[1] = measured here: cell number channel AC50, cells fed with added oleic acid
[2] = measured here: lipid fluorescence (Fed channel) AC50, cells fed with added oleic acid

Compound	cell number change [%]	AC50 [1]	AC50 [2]
CC(=NCc1ccco1)c1c(O)n(-c2ccccc2)c(=O)[nH]c1=O	-8.42		
O=C(Cc1ccc(Cl)c(Cl)c1)NCC1(N2CCOCC2)CCCCC1		0.0058 µM [rising, full curve, poor fit]	
CC(=O)c1c(C)n(CCCOC(C)C)c2ccc(O)cc12	-3.88		2.59 µM [rising, single point]
Nc1ccccc1-[n+]1c(-c2ccccc2)cc(-c2ccccc2)cc1-c1ccccc1	-50	29.1 µM [falling, single point]	29.1 µM [falling, single point]
CCOC(=O)c1c(C)c(P(=S)(N2CCOCC2)N2CCOCC2)n(C)c1C	11.8		
Cc1ccccc1N1C(=O)NC(=O)/C(=C\c2cnn(-c3ccccc3)c2)C1=O	-35.9	25.9 µM [falling, partial curve, poor fit]	20.6 µM [falling, partial curve]
Cc1ccc(S(=O)(=O)N2CCCCC2)cc1NC(=O)CN1CC=C(c2ccccc2)CC1	-14.2		0.651 µM [falling, single point]
COC(=O)N(c1ccccc1)P(=O)(Oc1ccccc1)Oc1ccccc1	1.8	6.51 µM [rising, single point]	
COc1ccc(/C=C2/C(=O)NC(=O)N(c3ccccc3)C2=O)cc1CN1C(=O)c2ccccc2C1=O	5.68		10.3 µM [rising, partial curve]
COC(=O)C1=C(c2cccc(OCc3ccccc3)c2)C[C@@H]2CC[C@H]1N2C(=O)NCc1cccc(OC)c1	15.4	1.16 µM [falling, single point]	1.03 µM [falling, single point]
Clc1ccc(C(c2ccccc2)c2ncc[nH]2)cc1 (centres undefined)	7.49		29.1 µM [rising, single point]
CCCCN1C(=O)NC(=O)C2(Cc3ccccc3N3CCOCC32)C1=O (centres undefined)	-10.2		0.0259 µM [falling, full curve, poor fit]
Cc1ccc(OP(=O)(NCc2ccccc2)Oc2ccc(C)cc2)cc1	28.9		2.06 µM [rising, single point]
CC(C)CCCn1c(O)c(/C=C2/C=CC=N2)c(=O)[nH]c1=O	2.51		
COP(=S)(OC)c1c(C)nn(CCC#N)c1NC(=O)c1ccc(Cl)cc1	4.78		20.6 µM [rising, partial curve]
Cc1ccc(N2C(=O)NC(=O)/C(=C\C=C\c3ccco3)C2=O)cc1C	-47	11.6 µM [falling, partial curve]	3.26 µM [falling, full curve]
O=C1NC(=S)NC(=O)C1=Cc1cccc2cc3ccccc3cc12	-50.6	1.46 µM [falling, partial curve]	1.46 µM [falling, partial curve]
Nc1nnc(CCN2CCCCC2)s1	-12.3		5.17 µM [falling, partial curve, poor fit]
O=C(CCn1c(=O)oc2ccccc21)NCCCN1CCCC1=O			5.8 µM [falling, full curve]
Cc1ccc(CN2C(=O)NC(=O)C3(Cc4c(nc5ccccn5c4=O)N4CCCCCC43)C2=O)cc1 (centres undefined)	-58.7	18.4 µM [falling, single point]	1.64 µM [rising, partial curve]

Compound	cell number change [%]	AC50 [1]	AC50 [2]
c1cncc(C2CCCCN2)c1 (centres undefined)	22.2		7.31 µM [rising, full curve, poor fit]
CCOC(C[n+]1c(-c2ccccc2)cc(C)cc1-c1ccccc1)OCC	10.2		0.291 µM [falling, partial curve]
O=C(COc1ccc2ccccc2c1)N1CCN(CC2CC3C=CC2C3)CC1 (centres undefined)	3.36		18.4 µM [rising, single point]
CCC(=NCCOc1ccc(Cl)cc1)c1c(O)n(C)c(=O)n(C)c1=O			0.58 µM [rising, single point]
Cc1cccc(C(=O)NC(Oc2ccccc2)C(Cl)(Cl)Cl)c1 (centres undefined)	-5.92		0.116 µM [falling, full curve, poor fit]
COC(=O)CCCCC1SCC(NC(=O)c2ccccc2)C1Cl (centres undefined)	-18.3		0.092 µM [falling, full curve, poor fit]
Cc1cc(C)c(C2=NOC(O)(C(F)(F)F)C2)c(=O)[nH]1 (centres undefined)	19.7		8.2 µM [rising, partial curve, poor fit]
Cc1cc(C)cc(N2C(=O)NC(=O)/C(=C\c3cccn3-c3ccccc3)C2=O)c1	-43.1	14.6 µM [falling, partial curve, poor fit]	7.31 µM [falling, partial curve]
COc1ccc(NC(=O)CN(C)C(=O)CSC(c2ccccc2)c2ccccc2)cc1	-13.4		29.1 µM [falling, single point]
COC(=O)C1=C(c2ccc3ccccc3c2)C[C@@H]2CC[C@H]1N2C(=O)NCCO	12.6		
C=CCn1c(O)c(C(CC)=NCCc2ccccc2)c(=O)[nH]c1=O	72.6	9.2 µM [rising, partial curve]	3.26 µM [rising, partial curve]
CSc1ccc(CN2CCN(C(=O)COc3cccc(C)c3)CC2)cc1	24.9		
CC(C)OC1CCCC(O)C1CC(=O)O (centres undefined)	-37.3	0.651 µM [falling, full curve]	23.1 µM [falling, partial curve]
O=c1[nH]c(=O)n(-c2ccccc2F)c(O)c1/C=C1\C=Nc2ccccc21	-6.18		9.2 µM [falling, single point]
CCN1C(=O)NC(=O)/C(=C\c2cn(CC(=O)N3CCCCC3)c3ccccc23)C1=O	2.94		0.206 µM [falling, single point]
CCC(C)N1Cc2ccccc2C1=N (centres undefined)	-7.74		6.51 µM [rising, single point]
CCCCOc1ccc(CN2CCN(CCO)CC2)cc1	-22.2	0.116 µM [falling, full curve, poor fit]	25.9 µM [falling, single point]
COP(=O)(OC)C1(Nc2ccc(C)cc2)CCCCC1	-83.1	18.4 µM [falling, single point]	0.146 µM [rising, full curve, poor fit]
COc1ccc2c(c1)c(C(=O)CN1CCC3(CC1)OCCO3)c(C)n2Cc1ccccc1	15		
Cc1cccc(NP(=O)(Oc2ccccc2)Oc2ccccc2)c1C	-0.417		0.164 µM [falling, full curve, poor fit]

Compound	cell number change [%]	AC50 [1]	AC50 [2]
NS(=O)(=O)c1ccc(N=Cc2c(O)n(C3CCCCC3)c(=O)n(C3CCCCC3)c2=O)cc1	-40.4	29.1 µM [falling, single point]	29.1 µM [falling, single point]
OC[C@H]1O[C@@H](n2cnc3cc(Cl)c(Cl)cc32)[C@H](O)[C@@H]1O	7.39		4.11 µM [rising, single point]
CCCCn1c(O)c(C=NCCCn2ccnc2)c(=O)[nH]c1=O	4.99		5.8 µM [rising, full curve, poor fit]
O=Cc1cn(CCCOc2ccccc2)c2ccccc12	8.03		5.8 µM [falling, full curve]
CCCCn1c(O)c(C(CC)=NCCN2CCCCC2)c(=O)[nH]c1=O	2.85		
O=c1c(/C=N/N2CCOCC2)c(O)n(-c2ccccc2)c(=S)n1-c1ccccc1	3.4		0.164 µM [falling, full curve, poor fit]
CCCCCn1c(=O)c(C(=O)Nc2cccc(C)c2)c(O)c2ccccc21	12		
COC(=O)C1=C(c2ccc(-c3ccccc3)c(F)c2)C[C@@H]2CC[C@H]1N2C(=O)NCCOc1ccccc1Cl			20.6 µM [falling, partial curve]
CCOc1ccc(N=Cc2c(O)n(CCc3ccc(OC)c(OC)c3)c(=O)[nH]c2=O)cc1		6.51 µM [rising, single point]	
COC(=O)C(O)(c1ccc(NC(=O)Oc2ccccc2)cc1)C(F)(F)F (centres undefined)	-41.2	2.06 µM [falling, partial curve, poor fit]	
O=c1c2ccccc2nc(-c2ccoc2)n1-c1ccccc1		2.31 µM [rising, single point]	
CSc1ncc(/C=C2/C(=O)NC(=O)N(C3CCCCC3)C2=O)cn1	-4.62		29.1 µM [falling, single point]
C[C@]12C=CC(=O)C=C1C=C[C@@H]1C2CC[C@]2(C)C(=O)CCC12 (some centres undefined)	-22.2		29.1 µM [rising, partial curve]
COc1ccc(C2=CC(c3ccc(OC)c(OC)c3)c3c(c4ccccc4oc3=O)O2)cc1OC (centres undefined)	7.67		23.1 µM [rising, single point]
Cn1cccc1CNCCc1ccccc1F	-29.9	4.11 µM [falling, full curve, poor fit]	
CN(Cc1ccccc1)C(=O)Cn1c(=O)oc2cc(S(=O)(=O)N3CCCC3)ccc21		0.58 µM [rising, single point]	
Cc1nc2ccccc2c(=O)n1-c1cccc(O)c1	10.6		0.00651 µM [falling, full curve, poor fit]
CC1CCCCN1Cc1ccc(Cl)nc1 (centres undefined)	8.72	1.84 µM [falling, partial curve, poor fit]	
O=C1CC(=O)N(Cc2ccccc2)C(=O)N1CCCCCCN1C(=O)CC(=O)N(Cc2ccccc2)C1=O	32.2		

Of the compounds above, these have a furan ring, fused or not:
Compound	cell number change [%]	AC50 [1]	AC50 [2]
CC(=NCc1ccco1)c1c(O)n(-c2ccccc2)c(=O)[nH]c1=O	-8.42		
Cc1ccc(N2C(=O)NC(=O)/C(=C\C=C\c3ccco3)C2=O)cc1C	-47	11.6 µM [falling, partial curve]	3.26 µM [falling, full curve]
O=c1c2ccccc2nc(-c2ccoc2)n1-c1ccccc1		2.31 µM [rising, single point]	
